{
  "sequences": {"note": "By UniProt entry, the sequences of proteins in these tests, tags left out.", "UniProt P14618": "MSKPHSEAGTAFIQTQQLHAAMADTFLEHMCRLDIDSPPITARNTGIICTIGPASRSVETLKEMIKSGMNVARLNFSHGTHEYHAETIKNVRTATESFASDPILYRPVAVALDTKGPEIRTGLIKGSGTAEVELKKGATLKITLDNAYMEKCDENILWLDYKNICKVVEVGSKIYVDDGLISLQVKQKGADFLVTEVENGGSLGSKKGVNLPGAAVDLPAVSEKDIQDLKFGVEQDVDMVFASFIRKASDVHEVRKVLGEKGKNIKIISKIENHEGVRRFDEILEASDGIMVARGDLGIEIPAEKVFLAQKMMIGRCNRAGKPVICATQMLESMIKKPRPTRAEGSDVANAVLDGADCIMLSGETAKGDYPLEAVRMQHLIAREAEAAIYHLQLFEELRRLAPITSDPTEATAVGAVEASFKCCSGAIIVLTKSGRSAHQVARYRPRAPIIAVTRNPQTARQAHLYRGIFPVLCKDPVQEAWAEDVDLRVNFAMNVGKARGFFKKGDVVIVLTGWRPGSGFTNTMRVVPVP"},
  "source": "paper PMC6803685",
  "molecular_target": "T1, VE-cadherin (human (endogenous in HUVEC)) (UniProt P33151)",
  "T1 sequence": "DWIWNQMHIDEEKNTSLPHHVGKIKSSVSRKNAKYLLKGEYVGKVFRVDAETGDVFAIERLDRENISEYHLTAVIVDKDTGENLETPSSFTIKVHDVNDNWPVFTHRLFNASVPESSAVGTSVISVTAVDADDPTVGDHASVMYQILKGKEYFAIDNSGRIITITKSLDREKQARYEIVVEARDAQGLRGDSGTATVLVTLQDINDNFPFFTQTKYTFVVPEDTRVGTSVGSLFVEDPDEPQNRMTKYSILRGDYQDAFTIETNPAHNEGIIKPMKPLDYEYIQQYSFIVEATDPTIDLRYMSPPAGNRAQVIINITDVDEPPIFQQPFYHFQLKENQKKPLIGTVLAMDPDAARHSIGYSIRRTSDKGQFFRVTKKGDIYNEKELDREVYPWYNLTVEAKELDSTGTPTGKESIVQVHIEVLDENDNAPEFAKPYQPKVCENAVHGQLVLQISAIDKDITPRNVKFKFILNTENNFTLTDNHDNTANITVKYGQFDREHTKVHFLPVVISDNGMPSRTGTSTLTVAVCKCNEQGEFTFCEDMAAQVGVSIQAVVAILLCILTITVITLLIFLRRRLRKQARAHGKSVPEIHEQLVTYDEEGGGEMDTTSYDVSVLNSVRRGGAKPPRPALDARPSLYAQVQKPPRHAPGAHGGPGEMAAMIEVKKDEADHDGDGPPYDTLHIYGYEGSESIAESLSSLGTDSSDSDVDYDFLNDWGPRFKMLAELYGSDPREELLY",
  "experiment": "proximity ligation; confluent HUVECs, fixed and permeabilized; Duolink PLA with rabbit anti-PKM2 and goat anti-VE-cadherin primary antibodies overnight at 4 °C; rabbit and goat IgGs as negative control",
  "note": "No constants are given. Whether binding was seen depends on the method and setting. Binding seen in cells or lysates may run through a third protein. Some results given as binding are weak or reduced against the parent protein; the word gives no strength.",
  "data": [
    {"substance": "pyruvate kinase 2 (PKM2) (from UniProt P14618 1-531) (enzyme)", "values": [
      {"measurement": "binding", "result": "binds"}
    ]}
  ]
}
